## Primary screen of a compound library

Data taken from ChEMBL document CHEMBL3988442, “University of Dundee, Small-Polar-MMV Screening Library” (2021).

Results are given as percent effect. How 0% and 100% were set is not recorded. Most values in the screen are low, and negative values occur. This is an unselected part of the compounds tested. Two or more numbers in one place are separate tests of the same structure; such repeats can differ widely.

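Viability assay of Plasmodium falciparum sporozoites; the read-out is not stated. The concentration is filed as 10 mM, unlikely as a test dose, so the dose is not known. The record gives no direction; compounds that gave an IC50 in retests scored well above the rest, so higher reads as lower viability. Strong results were mostly tested again. About 34,000 compounds were tested under these conditions; 0.84% (about 280) showed 50% or more at least once.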

SMILES,percent effect
O=C(c1ccco1)N1CCc2ncc(CN3CCOCC3)n2CC1,3.866
CC(=O)N1CCC2(CC1)CCN(C(=O)c1ccc(F)c(C(F)(F)F)c1)C2,-22.87
CCc1nsc(N2CCN(C(=O)c3ccnc(N(C)C)c3)CC2)n1,3.842
Cc1ccc(NC(C)C(=O)NCc2cccs2)cc1C (centres undefined),-5.077
O=C(O)C(F)(F)F.[H][C@]12CC[C@@]3(N=C(CC)N(CC4CC4)C3=O)[C@@]1([H])CN(CC(=O)N(C)C)C2,1.096
Cc1nc(CN2CCc3c(nc(C4CC4)n3C)C2)nc2ccccc12,-16.27 & -10.13
COc1ccc(Cl)cc1C(=O)N1CCOC2(CNCCOC2)C1 (centres undefined),-2.941
COCC(C)N(C)C(=O)c1nc(S(C)(=O)=O)n2ccccc12 (centres undefined),4.992
CN(Cc1ccc(Cl)c(Cl)c1)C(=O)CNC(N)=O,0.3382
Cc1ccc2snc(C(=O)N3CCN(C(=O)NCCC(C)C)CC3)c2c1,-20.98
Nc1nccnc1C1CN(C(=O)c2cnccn2)CCO1 (centres undefined),11.39
CCc1ccsc1C(=O)N1CCN(CC(C)O)CC1 (centres undefined),7.225
CCN(C(=O)Nc1nccs1)C(C)c1cccc(O)c1 (centres undefined),-0.1345 & -0.906
Cc1ccc(C(=O)N2CCC3(CC2)c2ccccc2[C@@H](N)[C@@H]3O)cc1F,15.44
COc1ccc(-n2c(SCC(=O)O)nnc2-c2cn[nH]c2)cc1,-8.402
NC(=O)NC(=O)CN1CCN(c2nccs2)CC1,5.551
COc1ncnc(N)c1CNCc1ccccc1-n1cccn1,21.92 & 26.27
CN1CCNCC(Cc2cnc3ccccc3c2)C1 (centres undefined),3.746
COc1cccc(OCC2CCCN(C(=O)CCCn3cccn3)C2)c1 (centres undefined),3.183 & -13.56
CC(=O)N1CC2C[C@]2(NC(=O)c2ccco2)C1 (some centres undefined),16.77
COc1c(NS(=O)(=O)c2cc(C)ccc2C)c(C)nn1C,2.722
C=C(C)Cn1ccc2cc(OC)c(F)cc2c1=O,-21.02
COc1ccc(Cl)cc1CS(=O)(=O)Cc1nc(C2CC2)no1,-23.99
CS(=O)(=O)CCC(=O)NC1(c2cccc(Br)c2)CC1,3.176
CC(=O)Nc1nc(C)c(S(=O)(=O)NCCc2cccnc2)s1,2.794
Cn1ccc2c(C(=O)NCCCN3CCOCC3)cccc21,-3.906
Cc1ccc(-c2ncc(CN3CCN(S(N)(=O)=O)CC3)s2)o1,-4.272
Cc1cnc(N)c(C(=O)C2CCN(C(=O)c3ccccc3F)CC2)c1,-17.19
O=C(CCNc1ncccn1)N1CCN(c2nccs2)CC1,15.71
Cc1nc(C)n(CC2CCCN(c3ncnc4sccc34)C2)n1 (centres undefined),13.44
COc1ccc(CCNC(=O)C(C)Nc2cc(C)ccc2C)cc1 (centres undefined),-1.956
O=C(Nc1nccs1)NC1CCN(Cc2ccccc2)CC1,6.48
O=C(COc1cccc(F)c1)N1C[C@H](CO)C[C@H](CN2CCCC2)C1,-6.922
CCOC(=O)[C@H]1[C@@H](O)C(=O)N(C)C12CCN(C(=O)CC(C)(C)C)CC2,9.665
CCC1CNCc2cc3c(OC)ccc(OC)c3nc2O1 (centres undefined),4.819
CCO[C@@H]1CO[C@@]2(CCCN(S(=O)(=O)c3ccccc3)C2)C1,-17.72
CS(=O)(=O)N1CCCCCC1c1cc(-c2ccc(F)cc2)no1 (centres undefined),12.1
Cc1nc2cc(-c3nccn3C)nn2c(N2CCCC(O)C2)c1C.Cl (centres undefined),1.71
CCC(C)NC(=O)CCc1ccc(OCC(F)(F)F)c(OC)c1 (centres undefined),-0.6284
Cc1nc2c(c(C)c1CC(=O)NCc1ccc(F)cc1)c(=O)[nH]n2C,8.741
COc1ccc(-c2n[nH]cc2CN(C)CCc2scnc2C)c(F)c1,-10.84
Cc1nnc(-c2cccc(C#N)c2)n1C1CCN(C2CC2)C1=O (centres undefined),-4.655
[H][C@@]12CCCO[C@]1([H])[C@H](Nc1ccccn1)CN(Cc1cccc(C)n1)C2,11.14
CN(C)c1nccc(C2CN(S(C)(=O)=O)C2)n1,16.51
CCC(C(=O)NCc1ccncc1)N(c1ccc(OC)cc1)S(C)(=O)=O (centres undefined),-1.717
CC(=O)N1CCNCC1c1cccc(C(=O)N(C)C)c1 (centres undefined),-14.57
Cc1csc(CNC(=O)N(C)Cc2ccc3c(c2)OCO3)n1,4.083 & -36.12 & -0.06047
CC(CN1CCCC1)C(=O)N1CCC(c2nccn2CC2CC2)CC1 (centres undefined),-15.18
OCCN1CCN(Cc2coc(-c3ccccc3)n2)CC1,4.872 & 45.79 & -1.761
COc1ccc2c(ccn2CCN)c1,-2.412
CN(C)CC(=O)N1CCOCC(Cc2ccccn2)C1 (centres undefined),10.36
CNc1ccc(CC2CCCN(C(=O)c3c(C)noc3C)C2)nn1 (centres undefined),0.6695
Cc1ccc(C2(O)CCN(Cc3nc(C)n4ccccc34)CC2)nc1,12.49
c1ccc(-c2noc(CN3CCc4cncnc4C3)n2)nc1,68.57 & 81.28 & 66.45
Cc1cccc(CN2CCc3c(nc(N4CCCCC4C)[nH]c3=O)C2)n1 (centres undefined),-11.26
CC1COCCN1Cc1nc(-c2cccc(C(F)(F)F)c2)no1 (centres undefined),-1.716
Cc1cc(Cc2ccc(F)cc2)cc(C2CCCNC2)n1 (centres undefined),9.363
CC(C)COC(C)C(=O)NCc1ccc(F)cc1 (centres undefined),-1.395
CCn1ccnc1CN1CCN(C(C)C(=O)N2CCCCCC2)CC1 (centres undefined),5.007
O=C(c1cscn1)N1CCC(O)(Cn2ccc3ccncc32)CC1,13.69
Cc1ccc(-c2nc(CNC3CCc4ncnn4C3)no2)cc1 (centres undefined),-1.416
CC(C)(C)c1nc(CN2CCCC2Cn2cccn2)no1 (centres undefined),14.06
CCC(NC(=O)CC1CCN(C(C)C)CC1)c1cn2cccnc2n1 (centres undefined),1.754
O=C(O)c1cc2c(nc1-c1ccncc1)CCN(Cc1ccoc1)CC2,13.97
Cc1cc(C(F)(F)F)nc(CNc2nc(C)nc3c2cnn3C)n1,-6.923
CCOCCCNc1nc(CS(=O)(=O)c2ccccc2)cs1,-13.94
COCCN(CCc1ccccc1)Cc1nc2c(cnn2C)c(=O)[nH]1,-1.44
CC(C)NC(=O)NCc1cc(-c2ccco2)n(CC(F)(F)F)n1,11.94
CCCNC(=O)C1CCCN(Cc2csc(C(C)(C)C)n2)C1 (centres undefined),11.53
Nc1ncc(-c2ccc(C(F)(F)F)cc2)c(C2CCCNC2)n1 (centres undefined),10.27

Some entries from above, unchanged:

Result for CN1CCNCC(Cc2cnc3ccccc3c2)C1 (centres undefined) was 3.746%.
Result for CN(C)CC(=O)N1CCOCC(Cc2ccccn2)C1 (centres undefined) was 10.36%.
Result for CNc1ccc(CC2CCCN(C(=O)c3c(C)noc3C)C2)nn1 (centres undefined) was 0.6695%.
Result for Cc1nnc(-c2cccc(C#N)c2)n1C1CCN(C2CC2)C1=O (centres undefined) was -4.655%.
Result for Cc1cnc(N)c(C(=O)C2CCN(C(=O)c3ccccc3F)CC2)c1 was -17.19%.
Result for CCCNC(=O)C1CCCN(Cc2csc(C(C)(C)C)n2)C1 (centres undefined) was 11.53%.